Values from PubChem BioAssay AID1259405 (NCATS, 2018).

Screen: 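Mouse-designed siRNAs used to find CHO productivity engineering targets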 (primary screen)
System: Chinese hamster CHO-K1 ovary cells with stable secreted eGFP expression
Reagent: single siRNA against mouse genes, 0.8 pmol siRNA per well (2 µl of 400 nM stock)
Timing: 3 days
Measurement: 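Percent of the per-plate non-targeting control median for intracellular GFP per well by laser scanning cytometry and for cell viability by ATP luminescence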
Reading the numbers: GFP, % of control: higher = more GFP per well, higher productivity; viability (ATP), % of control: higher = more viable cells (more ATP)
Call rule: 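a knock-down is called active if GFP reaches 120% or more of non-targeting control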
This is a random part of about 50,000 reagents tested. About 4,000 of them (8%) were called active. 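Mouse siRNA library applied to hamster cells; one well for each siRNA.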 The numbers tell different reagents against one gene apart.

For Ero1b #1, what does the deposit list?
GFP, % of control: 98.6; viability (ATP), % of control: 94.8; Call: inactive

With Ero1b #2, how do the results read?
GFP, % of control: 89.8; viability (ATP), % of control: 96.3; Call: inactive

With Ero1b #3, what does the deposit list?
GFP, % of control: 71.5; viability (ATP), % of control: 76.8; Call: inactive

With Lin7b #1, what was measured?
GFP, % of control: 75.1; viability (ATP), % of control: 59.9; Call: inactive

How did the screen score Lin7b #2?
GFP, % of control: 90; viability (ATP), % of control: 89.5; Call: inactive

What is on record for Or4d2 #1?
GFP, % of control: 93.9; viability (ATP), % of control: 53.6; Call: inactive

What is on record for Or4d2 #2?
GFP, % of control: 108; viability (ATP), % of control: 55.8; Call: inactive

What did the screen give for Or4d2 #3?
GFP, % of control: 40.3; viability (ATP), % of control: 115; Call: inactive

For Capn5 #1, what does the deposit list?
GFP, % of control: 95.3; viability (ATP), % of control: 50.5; Call: inactive

For Capn5 #2, what was measured?
GFP, % of control: 74; viability (ATP), % of control: 64.1; Call: inactive

For Abcd3 #1, what does the deposit list?
GFP, % of control: 75.2; viability (ATP), % of control: 78.2; Call: inactive

With Abcd3 #2, what was measured?
GFP, % of control: 78.8; viability (ATP), % of control: 85.3; Call: inactive

What did the screen give for Abcd3 #3?
GFP, % of control: 95.2; viability (ATP), % of control: 55.8; Call: inactive

Which result is listed for Slc20a2 #1?
GFP, % of control: 101; viability (ATP), % of control: 82.2; Call: inactive

For Slc20a2 #2, what does the deposit list?
GFP, % of control: 79.8; viability (ATP), % of control: 83.7; Call: inactive

How did the screen score Slc20a2 #3?
GFP, % of control: 83.9; viability (ATP), % of control: 58; Call: inactive

Which result is listed for Samd10 #1?
GFP, % of control: 71.9; viability (ATP), % of control: 87; Call: inactive

With Samd10 #2, how do the results read?
GFP, % of control: 49.1; viability (ATP), % of control: 56.7; Call: inactive

What is on record for Samd10 #3?
GFP, % of control: 74.4; viability (ATP), % of control: 74.3; Call: inactive

For Plekha7 #1, what was measured?
GFP, % of control: 111; viability (ATP), % of control: 81.3; Call: inactive

What is on record for Plekha7 #2?
GFP, % of control: 90.9; viability (ATP), % of control: 65.2; Call: inactive

With Plekha7 #3, what does the deposit list?
GFP, % of control: 103; viability (ATP), % of control: 72.1; Call: inactive

With Or10aa1 #1, what was measured?
GFP, % of control: 51.1; viability (ATP), % of control: 53.9; Call: inactive

What did the screen give for Or10aa1 #2?
GFP, % of control: 58.7; viability (ATP), % of control: 84.7; Call: inactive

For Or10aa1 #3, what does the deposit list?
GFP, % of control: 62.2; viability (ATP), % of control: 79.7; Call: inactive

For Traf7 #1, what does the deposit list?
GFP, % of control: 95.7; viability (ATP), % of control: 72.9; Call: inactive

What is on record for Traf7 #2?
GFP, % of control: 93.1; viability (ATP), % of control: 104; Call: inactive

What is on record for Traf7 #3?
GFP, % of control: 74.5; viability (ATP), % of control: 61.3; Call: inactive

Copied from the entries so far, 2 entries:
Samd10 #3 → GFP, % of control = 74.4; viability (ATP), % of control = 74.3; Call = inactive
Plekha7 #1 → GFP, % of control = 111; viability (ATP), % of control = 81.3; Call = inactive
